Laboratory results published in patent US20200010870A1, “Device, Method, And System For Identifying Organisms And Determining Their Sensitivity To Toxic Substances Using The Changes In The Concentrations Of Metabolites Present In Growth Medium” (priority 2017, published 2020).
For at least one compound, name, drawing or mass did not settle the structure.

Tested on: Pseudomonas aeruginosa
Test: NMR detection of antibiotic-induced perturbation in microbial metabolism (growth medium metabolites)
Type: cell-based
Conditions: M9 medium, 12 hours

In the case of `CN(C)[C@@H]1C(O)=C(C(N)=O)C(=O)[C@@]2(O)C(O)=C3C(=O)c4c(O)cccc4[C@@](C)(O)[C@H]3C[C@@H]12` [tetracycline], the “metabolic activity (glucose consumption, acetate and pyoverdine production) by NMR” value (drug resistant isolates, with and without 60 ug/ml tetracycline) is reported as “metabolically active” and the “metabolic activity (glucose consumption, acetate and pyoverdine production) by NMR” value (drug sensitive line, 60 ug/ml tetracycline) is reported as “metabolic inactivation”.
